Some of these results come from one statement about several compounds together.
Experiment: Absorption of delivery agents by the gastro-intestinal tract (statement)
Conditions: micronized or coarse form; acid and salts

O=C(O)CCCCCCCNC(=O)c1cc(Cl)ccc1O [5 CNAC acid, N-(5-chlorosalicyloyl)-8-aminocaprylic acid]
absorbed by the gastro-intestinal tract: greater than 90%
